At least one compound was matched to its structure with a doubt left.
Test system: intimal hyperplasia
Experiment: Patch plasty implantation at the iliac bifurcation, animal model
Assay type: in vivo, mini-pigs of the Gottingen type
Details: explanted after six weeks, versus standard prosthesis
Protocol: In a last step the prostheses were implanted in a preliminary animal trial in order to show the impact on intimal hyperplasia. Six mini-pigs of the Gottingen type were used as test animals. The Aa iliacae was prepared by a transperitonial access under general i.v. anaesthesia (Thiopental®) and each a multifunctional and a standard prosthesis were introduced into every animal. All animals obtained an antibiotic prophylaxis (Spizef®) and were anticoagulized with heparin.
As medicaments each of paclitaxel, sirolimus and IS was used twice. We have applied patch plasties as the border line between prosthesis and artery is bigger compared to end-to-end anastomoses and we could thus assess intimal hyperplasia in cross-section very well. The animals were again subjected to surgery after six weeks and the iliac bifurcation was explanted. Samples in longitudinal direction were derived from the patch plastics in the proximal and in the distal region, respectively, and samples in transversal direction were derived from the medium region. These samples were fixed in formaldehyde. The further processing comprised dehydration in an increasing alcohol series until embedding into paraffin. The preparations were cut and stained in HE and Tri-PAS. Apart from the extent of IH, also integration and inflammatory reactions were assessed.

**Q.** For `CO[C@H]1C[C@@H]2CC[C@@H](C)[C@@](O)(O2)C(=O)C(=O)N2CCCC[C@H]2C(=O)O[C@H]([C@H](C)C[C@@H]2CC[C@@H](O)[C@H](OC)C2)CC(=O)[C@H](C)/C=C(\C)[C@@H](O)[C@@H](OC)C(=O)[C@H](C)C[C@H](C)/C=C/C=C/C=C/1C` [sirolimus], which intimal hyperplasia is on record?
**A.** reduction in intimal hyperplasia

From patent publication US20090041823A1, “Agent-releasing Vascular Prosthesis” (priority 2003, published 2009)
